Laboratory results from the supplement of paper PMC4604168 (melanoma cell lines).
This is one part of the list. Many values rest on one well or one pass, so single values are uncertain.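 The apoptosis fraction was the count of cleaved-PARP antibody-stained nuclei relative to all DNA-stained nuclei, imaged in 1,536-well plates. Screening doses were set so most cells survived, and baseline and induced cleaved-PARP levels vary greatly across cell lines.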

Experiments:
Assay in all cases: cleaved PARP positive nuclei fraction relative to DMSO control; melanoma cells; higher = more apoptosis
Conditions in all cases: library dose: low library concentration; 72 h
COLO792 = test system: COLO792
COLO800 = test system: COLO800
COLO829 = test system: COLO829
G361 = test system: G361
IPC-298 = test system: IPC-298
IST-MEL1 = test system: IST-MEL1
LB2518-MEL = test system: LB2518-MEL
LOXIMVI = test system: LOXIMVI

| SMILES | cleaved PARP positive nuclei fraction (COLO792) | cleaved PARP positive nuclei fraction (COLO800) | cleaved PARP positive nuclei fraction (COLO829) | cleaved PARP positive nuclei fraction (G361) | cleaved PARP positive nuclei fraction (IPC-298) | cleaved PARP positive nuclei fraction (IST-MEL1) | cleaved PARP positive nuclei fraction (LB2518-MEL) | cleaved PARP positive nuclei fraction (LOXIMVI) |
| --- | --- | --- | --- | --- | --- | --- | --- | --- |
| N.N.[Cl][Pt][Cl] [cisplatin] + CC(C)CCN1c2nc(Nc3cc(F)c(O)c(F)c3)ncc2N(C)C(=O)C1C [BID1870] (first compound 1.6 µM, partner dose 0.2 µM) | 137% | 66.1% | 36.9% | 107% | 180% | 70.2% | 69% | 210% |
| CS(=O)(=O)c1ccc(C(=O)Nc2ccc(Cl)c(-c3ccccn3)c2)c(Cl)c1 [vismodegib] + C/C(O)=C(\C#N)C(=O)Nc1cc(Br)ccc1Br [LFM-A13] (first compound 1 µM, partner dose 2 µM) | 138% | 97% | 110% | 37.2% | 116% | 152% | 65.4% | 56.5% |
| Nc1ncn([C@H]2C[C@H](O)[C@@H](CO)O2)c(=O)n1 [decitabine] + C/C(O)=C(\C#N)C(=O)Nc1cc(Br)ccc1Br [LFM-A13] (first compound 0.1 µM, partner dose 2 µM) | 125% | 63.5% | 210% | 132% | 82.8% | 156% | 80.4% | 135% |
| C[C@]12O[C@H](C[C@]1(O)CO)n1c3ccccc3c3c4c(c5c6ccccc6n2c5c31)CNC4=O [Lestaurtinib] + N#Cc1c(O)c2c(-c3ccc(-c4ccccc4O)cc3)csc2[nH]c1=O [A769662] (first compound 0.004 µM, partner dose 2 µM) | 76.5% | 78.9% | 86.9% | 131% | 190% | 52.5% | 67.5% | 84.4% |
| CCCCCCCCc1ccc(CCC(N)(CO)CO)cc1 [fingolimod] + O=C(Oc1ccc([N+](=O)[O-])cc1)N1CCC(C(O)(c2ccc3c(c2)OCO3)c2ccc3c(c2)OCO3)CC1 [JZL184] (first compound 2 µM, partner dose 1 µM) | 57.5% | 180% | 206% | 75.7% | 87.8% | 58.6% | 128% | 42.2% |
| Cc1cc(Nc2cc(N3CCN(C)CC3)nc(/C=C/c3ccccc3)n2)n[nH]1 + C/C(O)=C(\C#N)C(=O)Nc1cc(Br)ccc1Br [LFM-A13] (first compound 0.04 µM, partner dose 2 µM) | 129% | 60.2% | 139% | 65.1% | 89.9% | 158% | 86.2% | 68.4% |
| OCc1c[nH]c2ccccc12 [Indole-3-carbinol] + Cc1cc(SCc2sc(-c3ccc(C(F)(F)F)c(F)c3)nc2C)ccc1OCC(=O)O [GW0742] (first compound 0.8 µM, partner dose 2 µM) | 41.4% | 51.1% | 154% | 144% | 59.3% | 94.2% | 70.9% | 205% |
| CC(=O)O[C@@]12CO[C@@H]1C[C@H](O)[C@@]1(C)C(=O)[C@H](O)C3=C(C)[C@@H](OC(=O)[C@H](O)[C@@H](NC(=O)OC(C)(C)C)c4ccccc4)C[C@@](O)([C@@H](OC(=O)c4ccccc4)[C@H]21)C3(C)C [Docetaxel] + C/C(O)=C(\C#N)C(=O)Nc1cc(Br)ccc1Br [LFM-A13] (first compound 0.0001 µM, partner dose 2 µM) | 470% | 584% | 405% | 545% | 56.8% | 204% | 103% | 274% |
| N.N.[Cl][Pt][Cl] [cisplatin] + O=c1cc(-c2cccc3c2Sc2ccccc2S3)oc(N2CCOCC2)c1 [KU55933] (first compound 1.6 µM, partner dose 1 µM) | 74.9% | 81.6% | 80.6% | 108% | 43.8% | 86.3% | 72.2% | 198% |
| CC(=O)c1c(C)c2cnc(Nc3ccc(N4CCNCC4)cn3)nc2n(C2CCCC2)c1=O [palbociclib] + O=C(Oc1ccc([N+](=O)[O-])cc1)N1CCC(C(O)(c2ccc3c(c2)OCO3)c2ccc3c(c2)OCO3)CC1 [JZL184] (first compound 0.04 µM, partner dose 1 µM) | 117% | 39.1% | 55.7% | 200% | 100% | 22.7% | 81.5% | 48.2% |
| O=C(O)[C@@H]1[O][Sb](=[O])([O][Sb]2(=[O])[O][C@H]([C@H](O)CO)[C@H](O)[C@H](C(=O)O)[O]2)[O][C@H]([C@H](O)CO)[C@@H]1O (some centres undefined) [stibogluconate] + O=C(Oc1ccc([N+](=O)[O-])cc1)N1CCC(C(O)(c2ccc3c(c2)OCO3)c2ccc3c(c2)OCO3)CC1 [JZL184] (first compound 2 µM, partner dose 1 µM) | 83.1% | 72.9% | 264% | 119% | 96.1% | 184% | 74.8% | 69.4% |
| N.N.[Cl][Pt][Cl] [cisplatin] + O=S(=O)(c1ccccc1)N(CC(F)(F)F)c1ccc(C(O)(C(F)(F)F)C(F)(F)F)cc1 [T0901317] (first compound 1.6 µM, partner dose 1.4 µM) | 127% | 170% | 66.6% | 171% | 101% | 61.3% | 66.7% | 50.8% |
| Cc1cn(-c2cc(NC(=O)c3ccc(C)c(Nc4nccc(-c5cccnc5)n4)c3)cc(C(F)(F)F)c2)cn1 [nilotinib] + Cc1cc(SCc2sc(-c3ccc(C(F)(F)F)c(F)c3)nc2C)ccc1OCC(=O)O [GW0742] (first compound 0.2 µM, partner dose 2 µM) | 116% | 81.7% | 219% | 165% | 95.1% | 47.4% | 130% | 157% |
| CNC(=O)c1cc(Oc2ccc(NC(=O)Nc3ccc(Cl)c(C(F)(F)F)c3)cc2)ccn1 [sorafenib] + Cc1cc(SCc2sc(-c3ccc(C(F)(F)F)c(F)c3)nc2C)ccc1OCC(=O)O [GW0742] (first compound 0.4 µM, partner dose 2 µM) | 134% | 205% | 52.1% | 25.9% | 104% | 86.6% | 62.5% | 82.2% |
| C[C@@H](Oc1cc(-c2cnn(C3CCNCC3)c2)cnc1N)c1c(Cl)ccc(F)c1Cl [Crizotinib] + Cc1cc(SCc2sc(-c3ccc(C(F)(F)F)c(F)c3)nc2C)ccc1OCC(=O)O [GW0742] (first compound 0.2 µM, partner dose 2 µM) | 86.9% | 113% | 131% | 172% | 62.6% | 126% | 202% | 172% |
| Nc1nc(F)nc2c1ncn2[C@@H]1O[C@H](CO)[C@@H](O)[C@@H]1O [fludarabine] + Cc1cc(SCc2sc(-c3ccc(C(F)(F)F)c(F)c3)nc2C)ccc1OCC(=O)O [GW0742] (first compound 0.2 µM, partner dose 2 µM) | 57.3% | 165% | 94.7% | 128% | 66.3% | 92.8% | 65.4% | 108% |
| N.N.[Cl][Pt][Cl] [cisplatin] + Cn1cc(/C=C2\C(=O)Nc3cccnc32)c2ccccc21 [GW441756] (first compound 1.6 µM, partner dose 0.4 µM) | 91.7% | 85.8% | 224% | 67.4% | 46.5% | 344% | 412% | 198% |
| Nc1ncn([C@H]2C[C@H](O)[C@@H](CO)O2)c(=O)n1 [decitabine] + O=C(Oc1ccc([N+](=O)[O-])cc1)N1CCC(C(O)(c2ccc3c(c2)OCO3)c2ccc3c(c2)OCO3)CC1 [JZL184] (first compound 0.1 µM, partner dose 1 µM) | 61.7% | 182% | 81.5% | 116% | 291% | 87.5% | 113% | 54.5% |
| CN(c1ncccc1CNc1nc(Nc2ccc3c(c2)CC(=O)N3)ncc1C(F)(F)F)S(C)(=O)=O + C/C(O)=C(\C#N)C(=O)Nc1cc(Br)ccc1Br [LFM-A13] (first compound 0.08 µM, partner dose 2 µM) | 79.1% | 112% | 187% | 90.9% | 182% | 75.8% | 79.1% | 166% |
| C[C@]12O[C@H](C[C@]1(O)CO)n1c3ccccc3c3c4c(c5c6ccccc6n2c5c31)CNC4=O [Lestaurtinib] + CC(C)CCN1c2nc(Nc3cc(F)c(O)c(F)c3)ncc2N(C)C(=O)C1C [BID1870] (first compound 0.004 µM, partner dose 0.2 µM) | 102% | 81.7% | 90% | 69.5% | 54.2% | 257% | 74.7% | 187% |
| CC(=O)O[C@@]12CO[C@@H]1C[C@H](O)[C@@]1(C)C(=O)[C@H](O)C3=C(C)[C@@H](OC(=O)[C@H](O)[C@@H](NC(=O)OC(C)(C)C)c4ccccc4)C[C@@](O)([C@@H](OC(=O)c4ccccc4)[C@H]21)C3(C)C [Docetaxel] + O=C(Oc1ccc([N+](=O)[O-])cc1)N1CCC(C(O)(c2ccc3c(c2)OCO3)c2ccc3c(c2)OCO3)CC1 [JZL184] (first compound 0.0001 µM, partner dose 1 µM) | 492% | 486% | 197% | 349% | 140% | 208% | 110% | 64.7% |
| C[C@]12O[C@H](C[C@]1(O)CO)n1c3ccccc3c3c4c(c5c6ccccc6n2c5c31)CNC4=O [Lestaurtinib] + Oc1cc(-c2nc(-c3ccccc3)[nH]c2-c2ccncc2)ccc1Cl [L779450] (first compound 0.004 µM, partner dose 0.2 µM) | 115% | 65.4% | 47.7% | 162% | 57.3% | 146% | 153% | 231% |
| Cn1cc(C2=C(c3cn(C4CCN(Cc5ccccn5)CC4)c4ccccc34)C(=O)NC2=O)c2ccccc21 [Enzastaurin] + Cc1cc(SCc2sc(-c3ccc(C(F)(F)F)c(F)c3)nc2C)ccc1OCC(=O)O [GW0742] (first compound 0.8 µM, partner dose 2 µM) | 148% | 39.2% | 82.6% | 99.8% | 44.2% | 100% | 99.8% | 182% |

Reprinted at random: 2 entries already listed

| SMILES | cleaved PARP positive nuclei fraction (COLO792) | cleaved PARP positive nuclei fraction (COLO800) | cleaved PARP positive nuclei fraction (COLO829) | cleaved PARP positive nuclei fraction (G361) | cleaved PARP positive nuclei fraction (IPC-298) | cleaved PARP positive nuclei fraction (IST-MEL1) | cleaved PARP positive nuclei fraction (LB2518-MEL) | cleaved PARP positive nuclei fraction (LOXIMVI) |
| --- | --- | --- | --- | --- | --- | --- | --- | --- |
| CNC(=O)c1cc(Oc2ccc(NC(=O)Nc3ccc(Cl)c(C(F)(F)F)c3)cc2)ccn1 [sorafenib] + Cc1cc(SCc2sc(-c3ccc(C(F)(F)F)c(F)c3)nc2C)ccc1OCC(=O)O [GW0742] (first compound 0.4 µM, partner dose 2 µM) | 134% | 205% | 52.1% | 25.9% | 104% | 86.6% | 62.5% | 82.2% |
| CCCCCCCCc1ccc(CCC(N)(CO)CO)cc1 [fingolimod] + O=C(Oc1ccc([N+](=O)[O-])cc1)N1CCC(C(O)(c2ccc3c(c2)OCO3)c2ccc3c(c2)OCO3)CC1 [JZL184] (first compound 2 µM, partner dose 1 µM) | 57.5% | 180% | 206% | 75.7% | 87.8% | 58.6% | 128% | 42.2% |
